Assays:
[1] = Animal Experiment 1 (Example 1): NaCl, water and feed consumption and body weight of SHRs; format: in vivo, rat; settings: 8-15 weeks old (56 days)
Experimental: Seven-week-old male SHRs were divided into 5 groups of 6 to 7 animals. Following 1 week of acclimatization, each group was allowed to feed freely on semi-solid feed for 7 to 8 weeks. The feed given was prepared by adding 40 wt % moisture to powdered feed. To ensure that each SHR would develop hypertension, 1 wt % salt was added to the feed. The animals were allowed to freely drink tap water. Over the course of the test period, each animal was weighed and the feed consumption was measured. Blood pressure was taken from the tail vein every four days between 4 PM and 6 PM. After a 12-hour fasting period, the animals were sacrificed. Serum, liver, and kidney were weighed and subjected to analyses.
The sea water added was NaCl-removed deep sea water (DW) or NaCl-removed surface sea water (SW) prepared by dialyzation through an electrodialyzer (Asahi Kasei) until the conductivity of monovalent ions was decreased to 10 mS/cm.
The Si concentration in the semi-solid feed containing 40% moisture is defined as the amount of Si contained in 1 kg of the feed.

[2] = Animal Experiment 2 (Example 2): NaCl, water and feed consumption and body weight of SHRs; format: in vivo, rat; settings: 7-14 weeks old (49 days)
Experimental: Twenty-five 7-week-old male SHRs were divided into 5 groups of 5 animals. Four times as much Si as used in Example 1 was added to the feed given to the rats. Otherwise, the animals were tested under the same conditions as in Example 1. Two types of sea water were added to the powder feed: sea water subjected to NaCl-removing treatment by electrical dialysis and ion-exchanged water. The semi-solid feed containing 1.4 wt % NaCl and 40% moisture was prepared by adding the sea water to powdered feed.

For `O.O.O.O.O.O.O.O.O.O=[Si]([O-])[O-].[Na+].[Na+]` [Si, sodium metasilicate nonahydrate], the Feed consumption [1] was 34.5 ± 3.1 g/day/rat, the “Feed consumption, % of Control” value [1] was “[101.9%]” and the NaCl consumption [1] was 344.1 ± 31.0 mg/day/rat. For the same molecule, the “NaCl consumption, % of Control” value [1] was “[101.9%]”, the Water consumption [1] was 23.5 ± 5.3 ml/day/rat and the “Water consumption, % of Control” value [1] was “[106.5%]”. The Feed consumption [2] was 29.2 ± 4.8 g/day/rat, the “Feed consumption, % of Control” value [2] was “[104.4%]” and the NaCl consumption [2] was 409.4 ± 58.5 mg/day/rat. The “NaCl consumption, % of Control” value [2] was “[110.3%]”, the Water consumption [2] was 34.8 ± 6.4 ml/day/rat and the “Water consumption, % of Control” value [2] was “[108.4%]”.

Source: patent publication US7919620B2, “Agent for suppressing blood pressure elevation” (Coral Biotech Kabushiki Kaisha, priority 2005, dated 2011)
